# Data from the supplement of paper PMC6411743.
# Chains of the proteins cited; added tags and fusions are not shown. Lines headed by an entry give the natural chain unless they say otherwise; changes in a name come on top.
# UniProt P11182, whole entry: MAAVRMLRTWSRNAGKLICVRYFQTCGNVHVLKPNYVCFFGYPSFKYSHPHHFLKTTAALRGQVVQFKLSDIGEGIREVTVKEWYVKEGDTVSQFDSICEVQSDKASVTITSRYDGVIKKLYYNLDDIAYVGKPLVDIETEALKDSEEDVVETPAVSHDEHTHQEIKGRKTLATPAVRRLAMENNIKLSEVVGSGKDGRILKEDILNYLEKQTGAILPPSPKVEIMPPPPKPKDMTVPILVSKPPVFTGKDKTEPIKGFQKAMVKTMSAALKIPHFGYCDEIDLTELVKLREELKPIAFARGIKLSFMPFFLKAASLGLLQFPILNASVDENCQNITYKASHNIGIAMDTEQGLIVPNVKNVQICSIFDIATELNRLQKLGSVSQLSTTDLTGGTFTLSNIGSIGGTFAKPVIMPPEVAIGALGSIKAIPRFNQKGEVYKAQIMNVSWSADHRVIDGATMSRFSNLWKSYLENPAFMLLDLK
# UniProt O96011: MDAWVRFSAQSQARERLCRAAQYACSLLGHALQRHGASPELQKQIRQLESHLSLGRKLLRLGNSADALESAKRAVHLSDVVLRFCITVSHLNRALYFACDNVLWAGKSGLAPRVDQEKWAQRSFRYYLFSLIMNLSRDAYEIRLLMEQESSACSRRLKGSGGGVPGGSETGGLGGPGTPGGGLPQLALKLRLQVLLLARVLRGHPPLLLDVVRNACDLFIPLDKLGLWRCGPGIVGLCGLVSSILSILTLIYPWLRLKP
# UniProt P14854, whole entry: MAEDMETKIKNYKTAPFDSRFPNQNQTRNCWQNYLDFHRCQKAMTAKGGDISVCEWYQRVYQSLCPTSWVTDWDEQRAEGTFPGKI
# UniProt P14316: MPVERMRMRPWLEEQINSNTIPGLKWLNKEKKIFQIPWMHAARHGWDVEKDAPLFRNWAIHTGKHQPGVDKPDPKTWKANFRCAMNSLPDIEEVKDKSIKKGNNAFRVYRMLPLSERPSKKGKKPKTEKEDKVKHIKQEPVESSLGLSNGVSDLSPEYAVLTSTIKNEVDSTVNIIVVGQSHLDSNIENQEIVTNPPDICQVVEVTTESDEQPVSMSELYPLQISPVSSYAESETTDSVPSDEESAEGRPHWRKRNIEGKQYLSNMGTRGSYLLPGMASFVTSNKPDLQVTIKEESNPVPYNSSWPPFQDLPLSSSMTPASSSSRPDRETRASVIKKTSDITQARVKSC
# UniProt P09110: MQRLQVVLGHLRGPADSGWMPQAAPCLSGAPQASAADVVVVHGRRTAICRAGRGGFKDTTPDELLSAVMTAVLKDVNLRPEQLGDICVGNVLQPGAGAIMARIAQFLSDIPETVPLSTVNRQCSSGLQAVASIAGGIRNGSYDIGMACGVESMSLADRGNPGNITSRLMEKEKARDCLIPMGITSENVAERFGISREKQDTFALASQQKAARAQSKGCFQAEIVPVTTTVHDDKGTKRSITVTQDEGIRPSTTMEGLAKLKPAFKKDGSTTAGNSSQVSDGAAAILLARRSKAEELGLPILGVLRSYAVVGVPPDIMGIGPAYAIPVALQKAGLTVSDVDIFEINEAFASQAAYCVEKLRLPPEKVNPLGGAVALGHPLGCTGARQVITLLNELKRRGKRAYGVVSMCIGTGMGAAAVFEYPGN
# UniProt Q71UI9, whole entry, looked up: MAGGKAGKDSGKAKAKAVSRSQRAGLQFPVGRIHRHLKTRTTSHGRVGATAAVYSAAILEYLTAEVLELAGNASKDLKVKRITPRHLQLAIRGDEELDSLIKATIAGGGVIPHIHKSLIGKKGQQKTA
# UniProt P04921: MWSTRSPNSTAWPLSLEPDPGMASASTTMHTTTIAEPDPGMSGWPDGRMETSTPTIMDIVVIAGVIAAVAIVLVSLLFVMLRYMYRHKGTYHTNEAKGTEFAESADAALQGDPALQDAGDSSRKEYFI
# UniProt O95825: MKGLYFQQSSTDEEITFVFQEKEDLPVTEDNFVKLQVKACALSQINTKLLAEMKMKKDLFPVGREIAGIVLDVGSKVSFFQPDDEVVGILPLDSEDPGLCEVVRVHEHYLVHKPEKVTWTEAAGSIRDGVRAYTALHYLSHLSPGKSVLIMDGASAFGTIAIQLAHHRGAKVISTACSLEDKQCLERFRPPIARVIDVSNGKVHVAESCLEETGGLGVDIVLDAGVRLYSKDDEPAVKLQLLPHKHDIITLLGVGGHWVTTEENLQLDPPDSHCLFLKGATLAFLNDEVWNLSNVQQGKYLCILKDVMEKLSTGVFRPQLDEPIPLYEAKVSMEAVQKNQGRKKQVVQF
# UniProt P07195, whole entry, looked up: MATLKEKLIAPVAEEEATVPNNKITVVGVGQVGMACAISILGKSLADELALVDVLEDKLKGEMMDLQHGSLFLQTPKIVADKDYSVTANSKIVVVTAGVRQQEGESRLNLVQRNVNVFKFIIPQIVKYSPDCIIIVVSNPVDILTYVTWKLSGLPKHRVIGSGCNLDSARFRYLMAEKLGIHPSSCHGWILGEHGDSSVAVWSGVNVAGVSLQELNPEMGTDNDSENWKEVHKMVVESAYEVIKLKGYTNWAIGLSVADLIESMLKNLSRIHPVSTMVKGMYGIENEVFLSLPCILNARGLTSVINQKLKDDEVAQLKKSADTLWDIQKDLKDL
# UniProt P02792: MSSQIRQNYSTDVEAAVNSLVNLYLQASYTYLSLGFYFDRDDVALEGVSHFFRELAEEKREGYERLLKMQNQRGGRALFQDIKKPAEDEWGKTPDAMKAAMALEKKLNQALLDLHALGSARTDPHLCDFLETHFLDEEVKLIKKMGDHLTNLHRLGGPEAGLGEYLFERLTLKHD
# UniProt P06241, whole entry, looked up: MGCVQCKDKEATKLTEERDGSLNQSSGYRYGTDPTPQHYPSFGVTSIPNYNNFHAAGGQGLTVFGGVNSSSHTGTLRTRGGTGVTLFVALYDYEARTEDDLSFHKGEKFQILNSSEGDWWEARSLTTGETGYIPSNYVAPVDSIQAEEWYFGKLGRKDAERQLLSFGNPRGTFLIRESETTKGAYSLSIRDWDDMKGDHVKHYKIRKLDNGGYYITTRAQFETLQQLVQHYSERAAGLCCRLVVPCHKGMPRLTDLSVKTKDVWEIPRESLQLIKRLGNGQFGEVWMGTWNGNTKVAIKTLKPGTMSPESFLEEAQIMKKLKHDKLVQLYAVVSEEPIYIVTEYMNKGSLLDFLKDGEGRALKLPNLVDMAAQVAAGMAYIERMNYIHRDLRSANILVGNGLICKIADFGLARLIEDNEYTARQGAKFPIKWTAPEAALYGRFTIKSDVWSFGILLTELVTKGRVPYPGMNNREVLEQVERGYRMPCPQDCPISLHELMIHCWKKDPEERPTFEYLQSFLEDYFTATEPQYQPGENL
# UniProt P08567: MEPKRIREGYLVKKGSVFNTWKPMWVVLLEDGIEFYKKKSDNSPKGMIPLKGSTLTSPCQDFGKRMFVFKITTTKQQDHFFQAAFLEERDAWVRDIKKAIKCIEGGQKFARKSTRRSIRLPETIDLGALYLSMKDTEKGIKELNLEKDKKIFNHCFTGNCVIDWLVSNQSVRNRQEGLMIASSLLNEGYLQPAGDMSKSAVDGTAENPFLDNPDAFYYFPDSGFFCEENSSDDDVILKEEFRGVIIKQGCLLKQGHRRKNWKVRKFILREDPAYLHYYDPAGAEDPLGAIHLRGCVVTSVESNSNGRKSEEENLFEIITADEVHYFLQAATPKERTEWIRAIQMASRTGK
# UniProt P10619: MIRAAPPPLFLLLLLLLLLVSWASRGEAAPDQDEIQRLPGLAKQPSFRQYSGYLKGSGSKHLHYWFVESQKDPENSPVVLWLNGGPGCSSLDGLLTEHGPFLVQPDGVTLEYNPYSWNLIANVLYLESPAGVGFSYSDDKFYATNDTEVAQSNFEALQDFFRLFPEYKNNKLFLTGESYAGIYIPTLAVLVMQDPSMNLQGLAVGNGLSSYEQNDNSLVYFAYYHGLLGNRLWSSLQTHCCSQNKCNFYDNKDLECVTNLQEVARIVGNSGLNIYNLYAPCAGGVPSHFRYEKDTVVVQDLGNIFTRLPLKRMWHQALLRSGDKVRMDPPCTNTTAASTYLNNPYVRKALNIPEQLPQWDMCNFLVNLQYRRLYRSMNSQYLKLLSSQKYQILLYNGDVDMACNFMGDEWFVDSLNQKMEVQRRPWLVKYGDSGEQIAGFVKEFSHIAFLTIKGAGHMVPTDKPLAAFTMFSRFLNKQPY
# UniProt P07099: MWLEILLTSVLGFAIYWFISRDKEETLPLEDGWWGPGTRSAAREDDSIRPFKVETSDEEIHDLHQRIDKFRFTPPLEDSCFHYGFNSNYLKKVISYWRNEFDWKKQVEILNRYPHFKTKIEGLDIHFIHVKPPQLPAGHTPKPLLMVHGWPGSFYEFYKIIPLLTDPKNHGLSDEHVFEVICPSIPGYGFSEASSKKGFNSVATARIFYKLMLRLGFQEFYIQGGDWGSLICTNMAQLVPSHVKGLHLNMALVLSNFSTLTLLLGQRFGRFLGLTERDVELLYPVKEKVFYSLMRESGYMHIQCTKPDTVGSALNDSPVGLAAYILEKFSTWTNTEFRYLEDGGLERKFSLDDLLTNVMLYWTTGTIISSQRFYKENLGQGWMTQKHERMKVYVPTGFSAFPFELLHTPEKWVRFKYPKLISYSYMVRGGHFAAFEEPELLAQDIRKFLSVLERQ
# UniProt P15104, whole entry: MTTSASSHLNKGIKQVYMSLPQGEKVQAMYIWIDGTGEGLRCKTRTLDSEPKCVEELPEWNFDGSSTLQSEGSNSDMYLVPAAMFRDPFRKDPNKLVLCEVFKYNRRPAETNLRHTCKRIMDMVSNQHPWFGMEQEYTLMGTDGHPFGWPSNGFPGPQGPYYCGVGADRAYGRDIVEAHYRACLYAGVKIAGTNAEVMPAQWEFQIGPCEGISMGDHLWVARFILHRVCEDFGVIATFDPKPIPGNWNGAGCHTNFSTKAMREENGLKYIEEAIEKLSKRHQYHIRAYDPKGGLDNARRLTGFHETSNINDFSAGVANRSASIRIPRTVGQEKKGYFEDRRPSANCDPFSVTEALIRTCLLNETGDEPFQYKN
# UniProt P08236: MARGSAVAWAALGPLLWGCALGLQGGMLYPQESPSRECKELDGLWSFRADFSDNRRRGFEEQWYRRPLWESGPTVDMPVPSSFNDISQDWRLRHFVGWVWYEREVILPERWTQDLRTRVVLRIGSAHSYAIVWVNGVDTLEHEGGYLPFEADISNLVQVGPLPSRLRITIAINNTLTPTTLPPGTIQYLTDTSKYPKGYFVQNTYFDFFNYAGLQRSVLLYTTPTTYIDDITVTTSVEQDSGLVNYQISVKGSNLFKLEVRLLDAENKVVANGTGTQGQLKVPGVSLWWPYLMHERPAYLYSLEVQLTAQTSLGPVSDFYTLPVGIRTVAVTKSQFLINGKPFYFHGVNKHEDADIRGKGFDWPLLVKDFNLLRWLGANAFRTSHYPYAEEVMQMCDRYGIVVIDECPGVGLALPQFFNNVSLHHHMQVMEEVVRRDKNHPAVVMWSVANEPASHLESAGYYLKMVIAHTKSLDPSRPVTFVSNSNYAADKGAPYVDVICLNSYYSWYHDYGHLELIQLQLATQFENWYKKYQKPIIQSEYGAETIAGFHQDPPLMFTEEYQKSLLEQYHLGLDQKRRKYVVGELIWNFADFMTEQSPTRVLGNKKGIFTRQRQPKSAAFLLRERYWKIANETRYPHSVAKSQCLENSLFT
# UniProt P13598: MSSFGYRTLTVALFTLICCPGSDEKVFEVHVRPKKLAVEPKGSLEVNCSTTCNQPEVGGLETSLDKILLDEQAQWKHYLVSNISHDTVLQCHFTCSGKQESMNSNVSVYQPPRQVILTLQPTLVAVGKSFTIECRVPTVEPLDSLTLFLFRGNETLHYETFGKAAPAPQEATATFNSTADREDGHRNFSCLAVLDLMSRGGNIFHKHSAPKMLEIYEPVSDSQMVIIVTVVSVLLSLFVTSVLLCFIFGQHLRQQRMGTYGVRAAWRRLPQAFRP
# UniProt P02786, whole entry, looked up: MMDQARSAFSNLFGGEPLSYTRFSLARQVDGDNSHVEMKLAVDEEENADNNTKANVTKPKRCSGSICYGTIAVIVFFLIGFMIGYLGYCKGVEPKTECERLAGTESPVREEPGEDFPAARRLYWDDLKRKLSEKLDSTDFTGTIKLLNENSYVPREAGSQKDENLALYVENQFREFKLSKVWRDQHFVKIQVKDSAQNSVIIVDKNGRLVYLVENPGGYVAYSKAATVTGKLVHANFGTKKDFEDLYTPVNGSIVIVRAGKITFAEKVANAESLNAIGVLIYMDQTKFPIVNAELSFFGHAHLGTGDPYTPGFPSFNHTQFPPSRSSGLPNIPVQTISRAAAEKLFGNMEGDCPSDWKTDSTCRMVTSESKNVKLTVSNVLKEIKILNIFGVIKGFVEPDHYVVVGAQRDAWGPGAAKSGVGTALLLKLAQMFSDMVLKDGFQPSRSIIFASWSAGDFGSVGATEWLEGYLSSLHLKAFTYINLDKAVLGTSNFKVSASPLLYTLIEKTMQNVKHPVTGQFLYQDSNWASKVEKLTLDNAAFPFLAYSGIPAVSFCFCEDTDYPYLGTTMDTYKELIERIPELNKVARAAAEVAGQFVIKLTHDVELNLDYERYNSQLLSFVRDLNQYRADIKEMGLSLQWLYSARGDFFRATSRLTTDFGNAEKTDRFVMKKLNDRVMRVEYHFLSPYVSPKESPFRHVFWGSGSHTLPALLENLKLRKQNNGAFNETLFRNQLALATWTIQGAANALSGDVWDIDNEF
# ± gives the standard deviation of the averaged measurements. Only a part is listed here, and it is no random draw. Most entries show no effect beyond the scatter of the controls.
# Compound: Nc1ncnc2c1ncn2[C@@H]1O[C@H](COP(=O)(O)OP(=O)(O)OP(=O)(O)O)[C@@H](O)[C@H]1O [adenosine triphosphate]
# Assay: NP40-soluble protein abundance relative to vehicle (solubility fold change) (ratio); higher = more soluble protein in presence of ATP
# Method in brief: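 Values are fold changes against the detergent-processed vehicle, based on vsn-normalised intensities. Jurkat crude lysate was treated at eight concentrations from 0.1 to 10 mM (10 min at room temperature, then 3 min at 37 °C), solubilised with 0.8% NP40 and benzonase, ultracentrifuged and analysed by TMT-labelled LC-MS/MS over three independent experiments.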
Target,NP40-soluble protein abundance (concentration: 0.1mM),NP40-soluble protein abundance (concentration: 0.5mM)
HEXB (UniProt P07686),0.972 ± 0.027,0.972 ± 0.02
CTSB (UniProt P07858),0.956 ± 0.052,0.962 ± 0.02
DBT (UniProt P11182),0.954 ± 0.095,1.04 ± 0.11
UniProt O96011 and related entries,0.935 ± 0.06,0.929 ± 0.1
ITGA5 (UniProt P08648),0.957 ± 0.034,0.893 ± 0.064
PTTG1 (UniProt O95997),0.913 ± 0.05,0.83 ± 0.029
IGF2R (UniProt P11717),0.971 ± 0.015,0.967 ± 0.059
COX6B1 (UniProt P14854),0.88 ± 0.14,0.806 ± 0.16
P0C0S8 and related entries (UniProt Q99878+Q96KK5+Q93077+Q6FI13+P0C0S8),0.783 ± 0.28,0.607 ± 0.27
UniProt P14316 and related entries,0.9785 ± 0.008,1.04 ± 0.058
UniProt P16383,0.972 ± 0.064,0.974 ± 0.082
LTA4H (UniProt P09960),1.03 ± 0.091,1.03 ± 0.052
GLA (UniProt P06280),0.967 ± 0.028,0.997 ± 0.041
TTC4 (UniProt O95801),1.01 ± 0.022,1.01 ± 0.041
VAV1 (UniProt P15498),1.06 ± 0.095,1.04 ± 0.075
UniProt P02545 and related entries,1.02 ± 0.076,1.05 ± 0.087
SNRPB2 (UniProt P08579),0.971 ± 0.014,0.984 ± 0.011
CYB5A (UniProt P00167),0.932 ± 0.026,0.868 ± 0.085
RB1 (UniProt P06400),0.997 ± 0.038,1.01 ± 0.034
P0DN79 and related entries (UniProt P35520+P0DN79),0.984 ± 0.043,0.956 ± 0.074

# Some of the entries above, reformatted:
Target	NP40-soluble protein abundance (concentration: 0.1mM)	NP40-soluble protein abundance (concentration: 0.5mM)
IGF2R (UniProt P11717)	0.971 ± 0.015	0.967 ± 0.059
COX6B1 (UniProt P14854)	0.88 ± 0.14	0.806 ± 0.16
P0C0S8 and related entries (UniProt Q99878+Q96KK5+Q93077+Q6FI13+P0C0S8)	0.783 ± 0.28	0.607 ± 0.27

# The list continues:

Target,NP40-soluble protein abundance (concentration: 0.1mM),NP40-soluble protein abundance (concentration: 0.5mM)
ACAA1 (UniProt P09110),0.99467 ± 0.00042,1.01 ± 0.047
P0C0S5 and related entries (UniProt Q71UI9+P0C0S5),0.924 ± 0.14,0.977 ± 0.26
RPLP0 (UniProt P05388),0.92 ± 0.038,0.911 ± 0.074
UniProt P04921 and related entries,0.755 ± 0.026,0.651 ± 0.13
P0CG12 and related entries (UniProt P0CG13),0.959 ± 0.047,0.884 ± 0.072
SLC2A1 (UniProt P11166),0.957 ± 0.054,1 ± 0.022
HSPD1 (UniProt P10809),0.971 ± 0.089,1.01 ± 0.062
CRYZL1 (UniProt O95825),1.05 ± 0.06,1.05 ± 0.066
CTSD (UniProt P07339),0.978 ± 0.029,0.994 ± 0.024
UniProt P10244 and related entries,0.946 ± 0.095,1.09 ± 0.043
TGFB1 (UniProt P01137),0.9956 ± 0.0088,0.956 ± 0.057
UniProt P04424 and related entries,0.995 ± 0.032,1.01 ± 0.046
LDHB (UniProt P07195),0.893 ± 0.2,1.1 ± 0.085
GLUD1 (UniProt P00367),0.945 ± 0.092,0.976 ± 0.07
UniProt P12814 and related entries,1.03 ± 0.026,1.03 ± 0.066
UniProt O96000 and related entries,0.932 ± 0.14,0.936 ± 0.2
UniProt P02792 and related entries,0.899 ± 0.17,0.89 ± 0.14
UniProt P06241 and related entries,1.04 ± 0.013,1.14 ± 0.079
UniProt P05362 and related entries,0.992 ± 0.064,1.02 ± 0.097
CLPTM1 (UniProt O96005),0.9661 ± 0.0059,0.999 ± 0.041

Target,NP40-soluble protein abundance (concentration: 0.1mM),NP40-soluble protein abundance (concentration: 0.5mM)
ACTL6A (UniProt O96019),1.04 ± 0.064,1.09 ± 0.062
POR (UniProt P16435),1.07 ± 0.037,1.07 ± 0.064
DHFR (UniProt P00374),1.04 ± 0.089,1.07 ± 0.067
HIST1H1C (UniProt P16403),1.02 ± 0.094,1.01 ± 0.063
P15531-2|P22392-2|Q32Q12 (UniProt Q32Q12+P22392+P15531),0.942 ± 0.03,0.947 ± 0.023
PLEK (UniProt P08567),1.07 ± 0.063,1.08 ± 0.019
UniProt P10619 and related entries,0.914 ± 0.035,0.905 ± 0.1
EPHX1 (UniProt P07099),1.08 ± 0.11,1.07 ± 0.1
GLUL (UniProt P15104),1.02 ± 0.036,1.01 ± 0.042
HMBS (UniProt P08397),1.01 ± 0.051,1.03 ± 0.065
RAP2A (UniProt P10114),1.15 ± 0.15,1.11 ± 0.13
LAMP1 (UniProt P11279),0.93 ± 0.04,0.936 ± 0.08
GOT2 (UniProt P00505),0.963 ± 0.14,1 ± 0.064
UniProt P08236 and related entries,0.998 ± 0.045,0.986 ± 0.048
UniProt P15813,0.86 ± 0.11,0.859 ± 0.12
ICAM2 (UniProt P13598),0.904 ± 0.027,0.912 ± 0.1
UniProt P10747 and related entries,0.929 ± 0.017,0.959 ± 0.064
UniProt P10155,1.02 ± 0.055,1.02 ± 0.045
TFRC (UniProt P02786),0.971 ± 0.032,0.993 ± 0.023
TYMS (UniProt P04818),1.03 ± 0.056,1 ± 0.053
